Source: article PMC8739325
No constants are given. Whether binding was seen depends on the method and setting. In cells and extracts the contact can be indirect. Some results given as binding are weak or reduced against the parent protein; the word gives no strength.

Protein sequences, listed by entry. Tags and fused reporters are not part of them.
UniProt P35637: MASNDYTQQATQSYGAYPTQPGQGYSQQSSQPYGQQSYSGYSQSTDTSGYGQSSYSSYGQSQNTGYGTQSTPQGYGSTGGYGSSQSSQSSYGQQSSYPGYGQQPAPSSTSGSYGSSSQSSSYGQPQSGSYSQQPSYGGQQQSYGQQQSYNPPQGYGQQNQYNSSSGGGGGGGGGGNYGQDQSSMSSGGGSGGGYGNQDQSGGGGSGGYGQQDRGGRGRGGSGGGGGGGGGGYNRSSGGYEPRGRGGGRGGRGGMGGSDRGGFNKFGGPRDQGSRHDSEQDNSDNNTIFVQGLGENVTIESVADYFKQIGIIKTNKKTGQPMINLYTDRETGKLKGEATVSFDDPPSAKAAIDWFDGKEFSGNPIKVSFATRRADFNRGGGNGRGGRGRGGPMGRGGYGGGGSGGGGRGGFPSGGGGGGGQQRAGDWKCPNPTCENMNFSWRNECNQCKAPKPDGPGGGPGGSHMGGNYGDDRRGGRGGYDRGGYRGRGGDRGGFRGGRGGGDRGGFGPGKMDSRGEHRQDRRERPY

T1: Quaking (QKI), human (human (endogenous in B-SPZ)) (UniProt Q96PU8)
T1 sequence: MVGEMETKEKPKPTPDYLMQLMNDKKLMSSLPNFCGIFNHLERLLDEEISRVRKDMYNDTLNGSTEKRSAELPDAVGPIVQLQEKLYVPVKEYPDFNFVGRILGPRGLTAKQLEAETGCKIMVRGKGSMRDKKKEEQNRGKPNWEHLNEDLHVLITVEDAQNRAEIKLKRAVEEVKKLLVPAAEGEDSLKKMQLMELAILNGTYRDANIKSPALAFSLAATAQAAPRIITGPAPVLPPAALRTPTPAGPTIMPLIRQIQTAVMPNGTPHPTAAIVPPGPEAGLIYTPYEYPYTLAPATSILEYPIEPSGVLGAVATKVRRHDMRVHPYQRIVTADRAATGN

B1: Quaking (QKI), human (protein, UniProt Q96PU8 1-341)
chain: T1 sequence

Tests used:
[1] = molecular target: T1, Quaking (QKI), human (human (endogenous in B-SPZ)); assay: co-IP; human B-SPZ lysed in RIPA buffer, sonicated; 500 ug supernatant proteins with 2 ug FUS, QKI or RNApol2 antibody or IgG overnight at 4 °C, Protein A/G PLUS agarose beads, washes in cold TBS pH 7.6; western blot with FUS, QKI and RNApol2 antibodies
[2] = molecular target: Fused protein in Sarcoma (FUS), human (human (endogenous in B-SPZ)) (UniProt P35637); assay: co-IP; protein fraction of the RIP assay: human B-SPZ treated in vitro with vehicle (CTRL) or 1 uM ACEA, lysed in RIP lysis buffer (50 mM Tris-HCl pH 7.4, 150 mM NaCl, 5 mM EDTA, 1% NP-40, 0.1% SDS); 5 ug FUS antibody or IgG overnight at 4 °C, Protein A/G PLUS agarose beads; 10% of beads analysed by western blot
[3] = molecular target: Fused protein in Sarcoma (FUS), human (human (endogenous in B-SPZ)) (UniProt P35637); assay: co-IP; human B-SPZ lysed in RIPA buffer, sonicated; 500 ug supernatant proteins with 2 ug FUS, QKI or RNApol2 antibody or IgG overnight at 4 °C, Protein A/G PLUS agarose beads, washes in cold TBS pH 7.6; western blot with FUS, QKI and RNApol2 antibodies

Molecule	binding [1]	binding [2]	binding [3]
Fused protein in Sarcoma (FUS), human (from UniProt P35637 1-526)	binds		
B1		binds	binds
